Measurements taken from patent publication US20200376034A1.
Results are given in words; binding and its absence hold for the method and conditions named. Some results given as binding are weak or reduced against the parent protein; the word gives no strength.

By UniProt entry, the sequences of proteins in these tests, tags left out. Where a name states a change or a piece, a line headed by the entry shows the natural chain unless it says otherwise.
UniProt P20138: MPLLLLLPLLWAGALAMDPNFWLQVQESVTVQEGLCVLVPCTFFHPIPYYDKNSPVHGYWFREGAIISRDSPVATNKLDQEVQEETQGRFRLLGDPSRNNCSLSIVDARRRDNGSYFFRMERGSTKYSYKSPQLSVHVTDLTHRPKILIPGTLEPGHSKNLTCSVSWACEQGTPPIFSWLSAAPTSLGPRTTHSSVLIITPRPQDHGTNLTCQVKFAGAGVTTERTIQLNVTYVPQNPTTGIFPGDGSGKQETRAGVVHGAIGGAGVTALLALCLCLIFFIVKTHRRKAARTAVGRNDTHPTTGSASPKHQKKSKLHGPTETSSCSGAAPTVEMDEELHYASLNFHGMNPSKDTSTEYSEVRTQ

Legend:
[1] = target: human CD33 expressed on cells (human) (UniProt P20138); assay: flow cytometry on Molm-13 cells, fluorophore-conjugated anti-human IgG secondary, MFI as fold over background (FOB)
[2] = target: V domain of human CD33 (human) (UniProt P20138); assay: SPR, Fab captured, 37 C

Binder	binding [1]	binding [2]
A40.I07 (bispecific antibody) NKG2D-binding arm, heavy chain variable domain: QVQLQQWGAGLLKPSETLSLTCAVYGGSFSGYYWSWIRQPPGKGLEWIGEIDHSGSTNYNPSLKSRVTISVDTSKNQFSLKLSSVTAADTAVYYCARARGPWSFDPWGQGTLVTVSS NKG2D-binding arm, light chain variable domain: DIQMTQSPSTLSASVGDRVTITCRASQSIGSWLAWYQQKPGKAPKLLIYKASSLESGVPSRFSGSGSGTEFTLTISSLQPDDFATYYCQQYHSFYTFGGGTKVEIK CD33-binding arm, heavy chain variable domain: EVQLVESGGGLVQPGGSLRLSCAASGFTFGSYWMSWVRQAPGKGLEWVATIKQDGSEKSYVDSVKGRFTISRDNAKNSLYLQMNSLRAEDTAVYYCARPLNAGELDVWGQGTMVTVSS CD33-binding arm, light chain variable domain: DIQMTQSPSTLSASVGDRVTITCRASQSISSWLAWYQQKPGKAPKLLIYEASSLESGVPSRFSGSGSGTEFTLTISSLQPDDFATYYCQQSQSYPPITFGGGTKVEIK	binds	
C26.I07 (bispecific antibody) NKG2D-binding arm, heavy chain variable domain: QVQLQQWGAGLLKPSETLSLTCAVYGGSFSGYYWSWIRQPPGKGLEWIGEIDHSGSTNYNPSLKSRVTISVDTSKNQFSLKLSSVTAADTAVYYCARARGPWSFDPWGQGTLVTVSS NKG2D-binding arm, light chain variable domain: DIQMTQSPSTLSASVGDRVTITCRASQSISSWLAWYQQKPGKAPKLLIYKASSLESGVPSRFSGSGSGTEFTLTISSLQPDDFATYYCQQYGSFPITFGGGTKVEIK CD33-binding arm, heavy chain variable domain: EVQLVESGGGLVQPGGSLRLSCAASGFTFGSYWMSWVRQAPGKGLEWVATIKQDGSEKSYVDSVKGRFTISRDNAKNSLYLQMNSLRAEDTAVYYCARPLNAGELDVWGQGTMVTVSS CD33-binding arm, light chain variable domain: DIQMTQSPSTLSASVGDRVTITCRASQSISSWLAWYQQKPGKAPKLLIYEASSLESGVPSRFSGSGSGTEFTLTISSLQPDDFATYYCQQSQSYPPITFGGGTKVEIK	binds	
C26.G59 (bispecific antibody) NKG2D-binding arm, heavy chain variable domain: QVQLQQWGAGLLKPSETLSLTCAVYGGSFSGYYWSWIRQPPGKGLEWIGEIDHSGSTNYNPSLKSRVTISVDTSKNQFSLKLSSVTAADTAVYYCARARGPWSFDPWGQGTLVTVSS NKG2D-binding arm, light chain variable domain: DIQMTQSPSTLSASVGDRVTITCRASQSISSWLAWYQQKPGKAPKLLIYKASSLESGVPSRFSGSGSGTEFTLTISSLQPDDFATYYCQQYGSFPITFGGGTKVEIK CD33-binding arm, heavy chain variable domain: EVQLVESGGGLVQPGGSLRLSCAASGFTFSSYGMSWVRQAPGKGLEWVANIKQDGSEKYYVDSVKGRFTISRDNAKNSLYLQMNSLRAEDTAVYYCAREGGPYYDSSGYFVYYGMDVWGQGTTVTVSS CD33-binding arm, light chain variable domain: DIQMTQSPSTLSASVGDRVTITCRASQSISSWLAWYQQKPGKAPKLLIYDASSLESGVPSRFSGSGSGTEFTLTISSLQPDDFATYYCQQYESFPTFGGGTKVEIK	binds	
A40.H76 (bispecific antibody) NKG2D-binding arm, heavy chain variable domain: QVQLQQWGAGLLKPSETLSLTCAVYGGSFSGYYWSWIRQPPGKGLEWIGEIDHSGSTNYNPSLKSRVTISVDTSKNQFSLKLSSVTAADTAVYYCARARGPWSFDPWGQGTLVTVSS NKG2D-binding arm, light chain variable domain: DIQMTQSPSTLSASVGDRVTITCRASQSIGSWLAWYQQKPGKAPKLLIYKASSLESGVPSRFSGSGSGTEFTLTISSLQPDDFATYYCQQYHSFYTFGGGTKVEIK CD33-binding arm, heavy chain variable domain: EVQLLESGGGLVQPGGSLRLSCAASGFTFSKYTMSWVRQAPGKGLEWVSAIVGSGESTYFADSVKGRFTISRDNSKNTLYLQMNSLRAEDTAVYYCAREGGPYYDSSGYFVYYGMDVWGQGTTVTVSS CD33-binding arm, light chain variable domain: DIQMTQSPSTLSASVGDRVTITCRASQSISSWLAWYQQKPGKAPKLLIYKASSLESGVPSRFSGSGSGTEFTLTISSLQPDDFATYYCQQYDDLPTFGGGTKVEIK	binds	
C26.H76 (bispecific antibody) NKG2D-binding arm, heavy chain variable domain: QVQLQQWGAGLLKPSETLSLTCAVYGGSFSGYYWSWIRQPPGKGLEWIGEIDHSGSTNYNPSLKSRVTISVDTSKNQFSLKLSSVTAADTAVYYCARARGPWSFDPWGQGTLVTVSS NKG2D-binding arm, light chain variable domain: DIQMTQSPSTLSASVGDRVTITCRASQSISSWLAWYQQKPGKAPKLLIYKASSLESGVPSRFSGSGSGTEFTLTISSLQPDDFATYYCQQYGSFPITFGGGTKVEIK CD33-binding arm, heavy chain variable domain: EVQLLESGGGLVQPGGSLRLSCAASGFTFSKYTMSWVRQAPGKGLEWVSAIVGSGESTYFADSVKGRFTISRDNSKNTLYLQMNSLRAEDTAVYYCAREGGPYYDSSGYFVYYGMDVWGQGTTVTVSS CD33-binding arm, light chain variable domain: DIQMTQSPSTLSASVGDRVTITCRASQSISSWLAWYQQKPGKAPKLLIYKASSLESGVPSRFSGSGSGTEFTLTISSLQPDDFATYYCQQYDDLPTFGGGTKVEIK	binds	
F47.H76 (bispecific antibody) NKG2D-binding arm, heavy chain variable domain: QVQLQQWGAGLLKPSETLSLTCAVYGGSFSGYYWSWIRQPPGKGLEWIGEIDHSGSTNYNPSLKSRVTISVDTSKNQFSLKLSSVTAADTAVYYCARARGPWSFDPWGQGTLVTVSS NKG2D-binding arm, light chain variable domain: DIQMTQSPSTLSASVGDRVTITCRASQSISSWLAWYQQKPGKAPKLLIYKASSLESGVPSRFSGSGSGTEFTLTISSLQPDDFATYYCQQYDTFITFGGGTKVEIK CD33-binding arm, heavy chain variable domain: EVQLLESGGGLVQPGGSLRLSCAASGFTFSKYTMSWVRQAPGKGLEWVSAIVGSGESTYFADSVKGRFTISRDNSKNTLYLQMNSLRAEDTAVYYCAREGGPYYDSSGYFVYYGMDVWGQGTTVTVSS CD33-binding arm, light chain variable domain: DIQMTQSPSTLSASVGDRVTITCRASQSISSWLAWYQQKPGKAPKLLIYKASSLESGVPSRFSGSGSGTEFTLTISSLQPDDFATYYCQQYDDLPTFGGGTKVEIK	binds	
A40.G59 (bispecific antibody) NKG2D-binding arm, heavy chain variable domain: QVQLQQWGAGLLKPSETLSLTCAVYGGSFSGYYWSWIRQPPGKGLEWIGEIDHSGSTNYNPSLKSRVTISVDTSKNQFSLKLSSVTAADTAVYYCARARGPWSFDPWGQGTLVTVSS NKG2D-binding arm, light chain variable domain: DIQMTQSPSTLSASVGDRVTITCRASQSIGSWLAWYQQKPGKAPKLLIYKASSLESGVPSRFSGSGSGTEFTLTISSLQPDDFATYYCQQYHSFYTFGGGTKVEIK CD33-binding arm, heavy chain variable domain: EVQLVESGGGLVQPGGSLRLSCAASGFTFSSYGMSWVRQAPGKGLEWVANIKQDGSEKYYVDSVKGRFTISRDNAKNSLYLQMNSLRAEDTAVYYCAREGGPYYDSSGYFVYYGMDVWGQGTTVTVSS CD33-binding arm, light chain variable domain: DIQMTQSPSTLSASVGDRVTITCRASQSISSWLAWYQQKPGKAPKLLIYDASSLESGVPSRFSGSGSGTEFTLTISSLQPDDFATYYCQQYESFPTFGGGTKVEIK	binds	
F47.G59 (bispecific antibody) NKG2D-binding arm, heavy chain variable domain: QVQLQQWGAGLLKPSETLSLTCAVYGGSFSGYYWSWIRQPPGKGLEWIGEIDHSGSTNYNPSLKSRVTISVDTSKNQFSLKLSSVTAADTAVYYCARARGPWSFDPWGQGTLVTVSS NKG2D-binding arm, light chain variable domain: DIQMTQSPSTLSASVGDRVTITCRASQSISSWLAWYQQKPGKAPKLLIYKASSLESGVPSRFSGSGSGTEFTLTISSLQPDDFATYYCQQYDTFITFGGGTKVEIK CD33-binding arm, heavy chain variable domain: EVQLVESGGGLVQPGGSLRLSCAASGFTFSSYGMSWVRQAPGKGLEWVANIKQDGSEKYYVDSVKGRFTISRDNAKNSLYLQMNSLRAEDTAVYYCAREGGPYYDSSGYFVYYGMDVWGQGTTVTVSS CD33-binding arm, light chain variable domain: DIQMTQSPSTLSASVGDRVTITCRASQSISSWLAWYQQKPGKAPKLLIYDASSLESGVPSRFSGSGSGTEFTLTISSLQPDDFATYYCQQYESFPTFGGGTKVEIK	binds	

More lines, now with the values ahead:

binding [1]	binding [2]	Binder
	binds	ADI-10177 Fab (Fab, V domains shown) VH: EVQLVESGGGLVQPGGSLRLSCAASGFTFSSYWMSWVRQAPGKGLEWVANIKQDGSEKYYVDSVKGRFTISRDNAKNSLYLQMNSLRAEDTAVYYCARPLNAGELDVWGQGTMVTVSS VL: DIQMTQSPSTLSASVGDRVTITCRASQSISSWLAWYQQKPGKAPKLLIYEASSLESGVPSRFSGSGSGTEFTLTISSLQPDDFATYYCQQLESYPLTFGGGTKVEIK
binds		A49.I07 (bispecific antibody) NKG2D-binding arm, heavy chain variable domain: EVQLVESGGGLVKPGGSLRLSCAASGFTFSSYSMNWVRQAPGKGLEWVSSISSSSSYIYYADSVKGRFTISRDNAKNSLYLQMNSLRAEDTAVYYCARGAPMGAAAGWFDPWGQGTLVTVSS NKG2D-binding arm, light chain variable domain: DIQMTQSPSSVSASVGDRVTITCRASQGISSWLAWYQQKPGKAPKLLIYAASSLQSGVPSRFSGSGSGTDFTLTISSLQPEDFATYYCQQGVSFPRTFGGGTKVEIK CD33-binding arm, heavy chain variable domain: EVQLVESGGGLVQPGGSLRLSCAASGFTFGSYWMSWVRQAPGKGLEWVATIKQDGSEKSYVDSVKGRFTISRDNAKNSLYLQMNSLRAEDTAVYYCARPLNAGELDVWGQGTMVTVSS CD33-binding arm, light chain variable domain: DIQMTQSPSTLSASVGDRVTITCRASQSISSWLAWYQQKPGKAPKLLIYEASSLESGVPSRFSGSGSGTEFTLTISSLQPDDFATYYCQQSQSYPPITFGGGTKVEIK
binds		A49.H76 (bispecific antibody) NKG2D-binding arm, heavy chain variable domain: EVQLVESGGGLVKPGGSLRLSCAASGFTFSSYSMNWVRQAPGKGLEWVSSISSSSSYIYYADSVKGRFTISRDNAKNSLYLQMNSLRAEDTAVYYCARGAPMGAAAGWFDPWGQGTLVTVSS NKG2D-binding arm, light chain variable domain: DIQMTQSPSSVSASVGDRVTITCRASQGISSWLAWYQQKPGKAPKLLIYAASSLQSGVPSRFSGSGSGTDFTLTISSLQPEDFATYYCQQGVSFPRTFGGGTKVEIK CD33-binding arm, heavy chain variable domain: EVQLLESGGGLVQPGGSLRLSCAASGFTFSKYTMSWVRQAPGKGLEWVSAIVGSGESTYFADSVKGRFTISRDNSKNTLYLQMNSLRAEDTAVYYCAREGGPYYDSSGYFVYYGMDVWGQGTTVTVSS CD33-binding arm, light chain variable domain: DIQMTQSPSTLSASVGDRVTITCRASQSISSWLAWYQQKPGKAPKLLIYKASSLESGVPSRFSGSGSGTEFTLTISSLQPDDFATYYCQQYDDLPTFGGGTKVEIK
binds		F47.I07 (bispecific antibody) NKG2D-binding arm, heavy chain variable domain: QVQLQQWGAGLLKPSETLSLTCAVYGGSFSGYYWSWIRQPPGKGLEWIGEIDHSGSTNYNPSLKSRVTISVDTSKNQFSLKLSSVTAADTAVYYCARARGPWSFDPWGQGTLVTVSS NKG2D-binding arm, light chain variable domain: DIQMTQSPSTLSASVGDRVTITCRASQSISSWLAWYQQKPGKAPKLLIYKASSLESGVPSRFSGSGSGTEFTLTISSLQPDDFATYYCQQYDTFITFGGGTKVEIK CD33-binding arm, heavy chain variable domain: EVQLVESGGGLVQPGGSLRLSCAASGFTFGSYWMSWVRQAPGKGLEWVATIKQDGSEKSYVDSVKGRFTISRDNAKNSLYLQMNSLRAEDTAVYYCARPLNAGELDVWGQGTMVTVSS CD33-binding arm, light chain variable domain: DIQMTQSPSTLSASVGDRVTITCRASQSISSWLAWYQQKPGKAPKLLIYEASSLESGVPSRFSGSGSGTEFTLTISSLQPDDFATYYCQQSQSYPPITFGGGTKVEIK
binds		A49.G59 (bispecific antibody) NKG2D-binding arm, heavy chain variable domain: EVQLVESGGGLVKPGGSLRLSCAASGFTFSSYSMNWVRQAPGKGLEWVSSISSSSSYIYYADSVKGRFTISRDNAKNSLYLQMNSLRAEDTAVYYCARGAPMGAAAGWFDPWGQGTLVTVSS NKG2D-binding arm, light chain variable domain: DIQMTQSPSSVSASVGDRVTITCRASQGISSWLAWYQQKPGKAPKLLIYAASSLQSGVPSRFSGSGSGTDFTLTISSLQPEDFATYYCQQGVSFPRTFGGGTKVEIK CD33-binding arm, heavy chain variable domain: EVQLVESGGGLVQPGGSLRLSCAASGFTFSSYGMSWVRQAPGKGLEWVANIKQDGSEKYYVDSVKGRFTISRDNAKNSLYLQMNSLRAEDTAVYYCAREGGPYYDSSGYFVYYGMDVWGQGTTVTVSS CD33-binding arm, light chain variable domain: DIQMTQSPSTLSASVGDRVTITCRASQSISSWLAWYQQKPGKAPKLLIYDASSLESGVPSRFSGSGSGTEFTLTISSLQPDDFATYYCQQYESFPTFGGGTKVEIK
